Counter-ions that a name gives are not always drawn. The data scatter; read single values as rough.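 Viability of TSC2-lost, immortalized human renal angiomyolipoma cells bearing an empty vector was measured by luminescent ATP assay, normalized to each plate's vehicle-treated wells, in low-serum medium, where TSC2-rescued cells do not grow.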 Where a SMILES comes first, the peptide text is derived from it. The star is where a group is joined. Cbz = O=C(OCc1ccccc1)*
Test system: 621-102 (TSC2-deficient)
Experiment: relative viability vs DMSO (fraction); higher = less cytotoxic
Details: serum: 0.1% FBS, 72 h

Compound	relative viability (0.0128 nM)	relative viability (0.064 nM)	relative viability (0.32 nM)	relative viability (1.6 nM)	relative viability (8 nM)	relative viability (40 nM)	relative viability (200 nM)	relative viability (1000 nM)	relative viability (5000 nM)
CC(C)C[C@@H](C=O)NC(=O)[C@H](CC(C)C)NC(=O)[C@H](CC(C)C)NC(=O)OCc1ccccc1 [MG132] (Cbz-Leu-Leu-Leu-aldehyde)	0.871	0.868	0.914	0.77	0.783	0.686	0.0159	0.0111	0.0124
Cc1c(C(=O)Nc2ccc(N3C[C@@H](C)O[C@@H](C)C3)nc2)cccc1-c1ccc(OC(F)(F)F)cc1 [LDE225 (NVP-LDE225,Erismodegib)]	0.873	0.827	0.785	0.87	0.822	0.779	0.716	0.617	0.118
Cc1[nH]c(/C=C2\C(=O)Nc3ccccc32)c(C)c1CCC(=O)O [TSU-68]	0.903	0.832	0.907	0.951	0.845	0.634	0.427	0.3	0.154
CC1(C)C(=O)N(CCN2CCC(C(=O)c3ccc(F)cc3)CC2)c2ccccc21	0.811	0.867	0.935	0.814	0.783	0.841	0.813	0.675	0.537
CC1(C)CCC(c2ccc(Cl)cc2)=C(CN2CCN(c3ccc(C(=O)NS(=O)(=O)c4ccc(N[C@H](CCN5CCOCC5)CSc5ccccc5)c(S(=O)(=O)C(F)(F)F)c4)cc3)CC2)C1 [ABT-263 (Navitoclax)]	0.805	0.792	0.704	0.761	0.718	0.571	0.468	0.315	0.0114
CC(C[N+](C)(C)C)OC(N)=O (configuration not stated) [Bethanechol chloride]	0.807	0.638	0.772	0.784	0.665	0.587	0.592	0.547	0.511
COc1cc2ncnc(-n3nc(-c4ccccn4)nc3N)c2cc1OC	0.763	0.922	0.947	0.333	0.867	0.682	0.86	0.779	0.693
Cn1c(Nc2ccc(C(F)(F)F)cc2)nc2cc(Oc3ccnc(-c4ncc(C(F)(F)F)[nH]4)c3)ccc21 [RAF265]	0.802	0.82	0.848	0.828	0.811	0.62	0.208	0.0928	0.0371
O=S(=O)(c1cccc2cnccc12)N1CCCNCC1 [Fasudil (HA-1077) HCl]	1.06	0.954	0.989	1.05	0.954	0.923	1.05	1.11	0.894
CCC[C@H](N[C@@H](C)C(=O)N1[C@H](C(=O)O)C[C@@H]2CCCC[C@@H]21)C(=O)OCC [Perindopril Erbumine]	0.647	0.724	0.758	0.707	0.636	0.681	0.614	0.654	0.484
Cc1nc(Nc2ncc(C(=O)Nc3c(C)cccc3Cl)s2)cc(N2CCN(CCO)CC2)n1 [Dasatinib]	0.908	0.984	0.784	0.745	0.781	0.636	0.573	0.439	0.337
C=CC(=O)Nc1cccc(Oc2nc(Nc3ccc(N4CCN(C)CC4)cc3OC)ncc2Cl)c1 [WZ4002]	0.904	0.896	1.02	0.886	0.847	0.844	0.777	0.69	0.351
COc1ccc(-n2nc(C(N)=O)c3c2C(=O)N(c2ccc(N4CCCCC4=O)cc2)CC3)cc1 [Apixaban]	0.694	0.722	0.802	0.848	0.726	0.788	0.726	0.591	0.346
CCCc1nc(C)c2c(=O)nc(-c3cc(S(=O)(=O)N4CCN(CC)CC4)ccc3OCC)[nH]n12 [Vardenafil HCl Trihydrate]	0.907	0.796	0.791	0.844	0.776	0.758	0.69	0.79	0.774
Cn1cc(-c2ccc3nnc(Sc4ccc5ncccc5c4)n3n2)cn1 [SGX-523]	0.841	0.869	0.878	0.762	0.746	0.692	0.154	0.00611	0.00786
CC(C)C[C@H](NC(=O)CNC(=O)c1cc(Cl)ccc1Cl)B(O)O [MLN2238]	0.882	0.823	0.779	0.68	0.658	0.552	0.153	0.0322	0.0258
CCOC(=O)C1=C(C)NC(C)=C(C(=O)OC)C1c1cccc(Cl)c1Cl (configuration not stated) [Felodipine]	0.974	0.948	0.893	0.923	0.874	0.87	0.804	0.804	0.888
O=C(NC1CCNCC1)c1n[nH]cc1NC(=O)c1c(Cl)cccc1Cl [AT7519]	0.771	0.868	1.01	0.778	0.731	0.697	0.686	0.032	0.0226
CC(C)Cc1ccc(C(C)C(=O)O)cc1 (configuration not stated) [Ibuprofen]	0.614	0.745	0.814	0.777	0.842	0.842	0.784	0.819	0.106
Nc1nc(=O)[nH]cc1F [Flucytosine]	0.754	0.885	0.842	0.675	0.716	0.982	0.819	0.687	0.738
Nc1ccc(S(N)(=O)=O)cc1 [Sulfanilamide]	1.4	1.51	1.64	1.54	0.751	0.855	1.11	1.82	0.958
COCC(=O)NC/C=C/c1ccc2ncnc(Nc3ccc(Oc4ccc(C)nc4)c(C)c3)c2c1	0.959	0.94	0.912	0.692	0.817	0.754	0.78	0.76	0.627
Cc1ccc(NC(=O)c2cccc(N(C)C)c2)cc1NC(=O)c1ccc(O)cc1	0.726	0.502	0.566	0.443	0.527	0.57	0.522	0.484	0.689

Two entries from above in a different format.
Compound,relative viability (0.0128 nM),relative viability (0.064 nM),relative viability (0.32 nM),relative viability (1.6 nM),relative viability (8 nM),relative viability (40 nM),relative viability (200 nM),relative viability (1000 nM),relative viability (5000 nM)
Cc1[nH]c(/C=C2\C(=O)Nc3ccccc32)c(C)c1CCC(=O)O [TSU-68],0.903,0.832,0.907,0.951,0.845,0.634,0.427,0.3,0.154
CCOC(=O)C1=C(C)NC(C)=C(C(=O)OC)C1c1cccc(Cl)c1Cl (configuration not stated) [Felodipine],0.974,0.948,0.893,0.923,0.874,0.87,0.804,0.804,0.888

From the supplement of paper PMC8960247
